# Assay results as given in PubChem BioAssay AID2685 (National Center for Advancing Translational Sciences (NCATS), 2010).
# The list shows a part of the results. Shown are side measurements of this screen, not its main read-out; they come without a call. Compounds called inactive in the main read-out are mostly missing here. The note in brackets gives the kind of curve behind each potency; many fits are weak.
# Experiment: qHTS Assay for Lipid Storage Modulators in Drosophila S3 Cells;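 on cell number change: cells counted by Cell Tracker Red CMTPX staining in the red channel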
# Conditions: BODIPY lipid droplet fluorescence, 18-24 h; for cell number change: measured here: cell count max response, cells fed with added oleic acid
# Method in brief: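 Laser-scanning cytometry quantifies lipid droplet accumulation (500–530 nm total intensity; droplet/cell object ratio) in oleic acid-fed (400 uM added) Drosophila S3 cells treated with a concentration series. 20 uM Triacsin C defined 100% inhibition.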
# [1] = measured here: lipid fluorescence (Fed channel) AC50, cells fed with added oleic acid
# [2] = measured here: cell number channel AC50, cells fed with added oleic acid
smiles,measurement,setting,value
CCN(CC(=O)NCc1ccc(Cl)cc1)C(=O)CSc1cccc(C(F)(F)F)c1,AC50,[1],"32.6 µM [falling, single point]"
COC(=O)c1[nH]nc2c1C(=O)N(C1CCCCC1)C2=O,cell number change,,2.65%
same,AC50,[1],"29.1 µM [rising, single point]"
Nc1nc(SCC(=O)NCCc2ccccc2)[nH]c(=O)c1-c1ccccc1,cell number change,,-33.6%
same,AC50,[2],"29.1 µM [falling, single point]"
same,AC50,[1],"18.4 µM [falling, single point]"
O=C(O)CCCC(=O)Nc1ccc(OCc2nc3ccccc3s2)cc1,cell number change,,7.93%
same,AC50,[2],"0.103 µM [falling, full curve, poor fit]"
COc1cc(C(C(=O)NC2CCCC2)N(Cc2ccco2)C(=O)c2snc(C(N)=O)c2N)cc(OC)c1OC (stereo not given),cell number change,,-0.417%
same,AC50,[1],"0.58 µM [rising, single point]"
Cc1cc(C)n(C(=O)CNc2cccc(Cl)c2C)n1,cell number change,,-5.42%
O=C(Cn1cc([N+](=O)[O-])ccc1=O)NC1CCCCC1,cell number change,,-0.634%
CC(=O)Nc1ccc(/C=N/N2CCCCC2)cc1,cell number change,,-17%
same,AC50,[1],"5.8 µM [falling, full curve, poor fit]"
COCCN(Cc1nc(C(c2ccccc2)c2ccccc2)no1)C(C)C,cell number change,,-6.59%
same,AC50,[1],"5.17 µM [rising, full curve]"
CCN(CC(=O)NC(C)C)C(=O)[C@@H](NC(=O)c1ccco1)C(C)C,cell number change,,13.2%
Cc1ccccc1-n1c(C)cc(/C=N/NC(=O)c2ccc(CN3CCOCC3)cc2)c1C,cell number change,,3.67%
same,AC50,[1],"0.517 µM [falling, full curve]"
O=C(COc1ncnc2ccccc12)NCCc1ccccc1,cell number change,,15.5%
O=C(NCc1ccc2c(c1)OCO2)c1ccc(CSCc2cccc(Cl)c2)o1,cell number change,,9.86%
same,AC50,[1],"8.2 µM [rising, single point]"
COc1cc(/C=N/NC(=O)CC#N)cc(Br)c1O,cell number change,,-12.7%
same,AC50,[1],"7.31 µM [falling, partial curve]"
O=C(c1cc(F)c(F)cc1Cl)N1CCN(S(=O)(=O)c2cccs2)CC1,cell number change,,24.1%
Cc1cc(F)ccc1NC(=O)C1CSC2(C)CCC(=O)N12 (stereo not given),cell number change,,-13.6%
same,AC50,[1],"29.1 µM [rising, single point]"
Cn1nc(C(=O)NNC(=O)CCc2ccccc2Cl)c2ccccc2c1=O,cell number change,,-5.76%
same,AC50,[1],"7.31 µM [falling, partial curve, poor fit]"
CCc1c(C)nc2ncnn2c1N1CCCC(C(=O)NCCc2ccc(OC)cc2)C1 (stereo not given),cell number change,,-26.3%
O=C(O)CC1(CC(=O)N2CCOCC2)CCCC1,cell number change,,-15.1%
same,AC50,[1],"29.1 µM [rising, single point]"
Cc1ccc(OCCCN2CCCC2)c(C)c1,cell number change,,-85.7%
same,AC50,[2],"29.1 µM [falling, single point]"
same,AC50,[1],"20.6 µM [falling, single point]"
Cc1nc2c(-c3ccc(F)cc3)c(C)nn2c(C)c1CCC(=O)N1CCN(c2ccccc2)CC1,cell number change,,51.9%
same,AC50,[2],"4.11 µM [rising, partial curve, poor fit]"
CCCOC(=O)c1ccc(NC(=O)c2cccc(S(=O)(=O)N3CCN(C(C)=O)CC3)c2)cc1,cell number change,,5.13%
same,AC50,[2],"2.06 µM [rising, single point]"
same,AC50,[1],"4.11 µM [falling, partial curve]"
C(=C\n1nnc2ccccc21)/c1ccc[nH]1,cell number change,,27%
same,AC50,[1],"20.6 µM [rising, single point]"
Cc1c(OCc2nn[nH]n2)ccc2c3c(c(=O)oc12)CCCC3,cell number change,,71.9%
same,AC50,[2],"16.4 µM [rising, partial curve]"
same,AC50,[1],"0.146 µM [falling, single point]"
COc1ccc(-n2nc3c(c2NC(=O)C(C)C)CSC3)cc1,cell number change,,32.1%
same,AC50,[2],"29.1 µM [rising, single point]"
CCn1c(SCC(=O)Nc2cc(C)on2)nnc1-c1cccnc1,cell number change,,14.6%
same,AC50,[1],"0.116 µM [rising, single point]"
CCCCn1c(-c2ccc(Cl)c(Cl)c2)nc2cc3[nH]c(=O)c(C(C)C)nc3cc21,cell number change,,-16.2%
CCc1nc2oc3ccccc3c(=O)c2c(=O)n1Cc1ccccc1,cell number change,,26.2%
same,AC50,[2],"1.46 µM [rising, full curve, poor fit]"
same,AC50,[1],"0.82 µM [rising, full curve]"
Cc1ccc(-c2c[n+](CC(=O)N3c4ccccc4Sc4ccccc43)c3n2CCC3)cc1,cell number change,,-13.2%
same,AC50,[1],"29.1 µM [falling, single point]"
CC(C)c1ccc(S(=O)(=O)c2ccc(NN)cc2)cc1,cell number change,,30.6%
same,AC50,[2],"0.00461 µM [rising, full curve, poor fit]"
O=C(CCSc1nc(-c2ccco2)cc(C(F)(F)F)n1)NCCc1ccccc1,cell number change,,-5.19%
same,AC50,[2],"4.11 µM [rising, single point]"
same,AC50,[1],"0.58 µM [falling, single point]"

# Reformatted with bars between the fields: entries from further up.
smiles | measurement | setting | value
Cc1nc2c(-c3ccc(F)cc3)c(C)nn2c(C)c1CCC(=O)N1CCN(c2ccccc2)CC1 | cell number change |  | 51.9%
same | AC50 | [2] | 4.11 µM [rising, partial curve, poor fit]
CCCOC(=O)c1ccc(NC(=O)c2cccc(S(=O)(=O)N3CCN(C(C)=O)CC3)c2)cc1 | cell number change |  | 5.13%
same | AC50 | [2] | 2.06 µM [rising, single point]
